Consider one compound from patent US20240092814A1, “WATER-SOLUBLE Pd(II) COMPLEX, METHOD FOR SYNTHESIZING SAME, AND USE THEREOF AS [sequence] PRECURSOR” (priority 2022, published 2024).

Like-named read-outs stand apart in the source and are kept apart here.

With `O=C1[O][Pd]([N+](=O)[O-])([N+](=O)[O-])[O]C1=O` [Pd-X6, ammonium dinitrooxalato palladium(II)], the “Conversion rate of Propane” value is, setting by setting: (350 ° C., water content 0%) 100%; (350 ° C., water content 5%) 97.8%; (350 ° C., water content 10%) 94.9%; (350 ° C., water content 15%) 91.2%; (350 ° C., water content 20%) 87.5%; (400 ° C., water content 0%) 100%. The “Conversion rate of Propane” value is, setting by setting: (400 ° C., water content 5%) 100%; (400 ° C., water content 10%) 99.6%; (400 ° C., water content 15%) 99%; (400 ° C., water content 20%) 100%; (450 ° C., water content 0%) 100%; (450 ° C., water content 5%) 100%. The “Conversion rate of Propane” value is, setting by setting: (450 ° C., water content 10%) 100%; (450 ° C., water content 15%) 100%; (450 ° C., water content 20%) 100%; (500 ° C., water content 0%) 100%; (500 ° C., water content 5%) 100%; (500 ° C., water content 10%) 100%. Also, the “Conversion rate of Propane” value runs as follows: (500 ° C., water content 15%) 100%; (500 ° C., water content 20%) 100%.
